Our source for the binding values is publication PMC4255804.

The chains behind the UniProt entries cited, without tags or fusion partners.
UniProt Q61056: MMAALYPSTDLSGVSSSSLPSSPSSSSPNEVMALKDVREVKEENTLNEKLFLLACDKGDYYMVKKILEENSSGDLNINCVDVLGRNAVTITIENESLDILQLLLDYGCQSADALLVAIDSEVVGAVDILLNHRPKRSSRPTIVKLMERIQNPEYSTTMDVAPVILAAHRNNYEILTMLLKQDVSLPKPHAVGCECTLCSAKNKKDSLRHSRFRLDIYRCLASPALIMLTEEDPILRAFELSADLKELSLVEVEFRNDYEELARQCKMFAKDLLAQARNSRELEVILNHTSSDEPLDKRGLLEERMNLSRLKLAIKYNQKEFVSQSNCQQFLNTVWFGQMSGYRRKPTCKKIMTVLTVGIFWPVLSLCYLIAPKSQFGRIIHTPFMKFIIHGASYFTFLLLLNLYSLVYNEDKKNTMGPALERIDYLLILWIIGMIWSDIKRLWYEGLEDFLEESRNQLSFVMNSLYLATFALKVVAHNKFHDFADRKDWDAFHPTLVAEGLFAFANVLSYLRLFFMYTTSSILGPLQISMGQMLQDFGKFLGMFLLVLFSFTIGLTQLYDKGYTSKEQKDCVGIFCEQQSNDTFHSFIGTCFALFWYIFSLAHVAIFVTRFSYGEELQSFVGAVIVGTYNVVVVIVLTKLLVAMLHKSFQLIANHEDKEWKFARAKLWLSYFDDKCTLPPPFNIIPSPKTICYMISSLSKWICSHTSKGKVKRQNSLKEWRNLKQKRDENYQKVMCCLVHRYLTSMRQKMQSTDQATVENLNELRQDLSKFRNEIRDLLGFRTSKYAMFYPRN
UniProt Q9QX01: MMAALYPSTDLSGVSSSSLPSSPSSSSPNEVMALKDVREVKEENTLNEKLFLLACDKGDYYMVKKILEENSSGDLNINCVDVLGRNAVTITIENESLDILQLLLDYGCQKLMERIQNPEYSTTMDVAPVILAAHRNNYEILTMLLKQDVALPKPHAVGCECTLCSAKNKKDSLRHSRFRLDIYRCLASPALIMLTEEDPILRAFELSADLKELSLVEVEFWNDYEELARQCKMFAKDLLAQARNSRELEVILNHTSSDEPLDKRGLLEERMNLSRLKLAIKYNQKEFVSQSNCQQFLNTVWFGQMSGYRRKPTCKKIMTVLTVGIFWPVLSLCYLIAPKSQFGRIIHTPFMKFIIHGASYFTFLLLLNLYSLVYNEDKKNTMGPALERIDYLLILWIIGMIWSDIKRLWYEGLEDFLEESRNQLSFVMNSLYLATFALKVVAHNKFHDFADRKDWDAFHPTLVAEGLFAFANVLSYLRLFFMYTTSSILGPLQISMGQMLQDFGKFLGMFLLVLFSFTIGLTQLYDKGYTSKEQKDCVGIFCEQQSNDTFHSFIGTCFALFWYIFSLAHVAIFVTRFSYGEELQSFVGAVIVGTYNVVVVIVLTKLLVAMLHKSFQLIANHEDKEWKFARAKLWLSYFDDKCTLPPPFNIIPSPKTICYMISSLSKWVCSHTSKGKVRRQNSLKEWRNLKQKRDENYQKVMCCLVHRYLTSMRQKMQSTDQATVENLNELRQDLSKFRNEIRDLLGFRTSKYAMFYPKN

Where a chain is given by its changes, count along the chain named. These are yes or no findings as the source states them, for the method shown. In cells and extracts the contact can be indirect. Some binding calls cover weakened binding; strength is not graded here.

The target in experiment [1] is Human Caveolin-1 (Cav1) stably overexpressed in IEC-6 cells (IEC-Cav1) (human) (UniProt Q03135). In words: co-IP; whole-cell lysates in RIPA buffer (500 ug) of IEC-6, IEC-Cdx2L1, IEC-TRPC1 (also after siCav1 or C-siRNA), IEC-Cav1 and Null cells; IP with anti-Cav1 or anti-TRPC1 antibody (4 ug), protein A/G-PLUS-Agarose, 4 C; western blot for TRPC1 or Cav1. A general note: A western blot detects proteins with antibodies after separation by electrophoresis.

The target in experiment [2] is T1, Caveolin-1 (Cav1), endogenous in rat intestinal epithelial cells (rat (endogenous in IEC-6)) (UniProt P41350).
T1 sequence: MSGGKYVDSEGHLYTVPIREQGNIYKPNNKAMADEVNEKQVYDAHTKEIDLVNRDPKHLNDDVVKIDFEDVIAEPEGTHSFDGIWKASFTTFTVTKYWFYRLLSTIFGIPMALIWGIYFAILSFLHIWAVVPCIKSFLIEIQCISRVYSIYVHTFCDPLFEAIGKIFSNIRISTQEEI
Described as above.

In experiment [3] the target is Canonical transient receptor potential-1 (TRPC1), mouse gastric mucosa (mouse (endogenous in gastric mucosa)) (UniProt Q61056). In words: co-IP; gastric mucosal protein extracts (500 ug) of control littermate mice 0, 3, 6 and 16 h after intragastric 3.4 mol/L NaCl; IP with anti-TRPC1 antibody (4 ug), protein A/G-PLUS-Agarose, 4 C; western blot for Cav1 and TRPC1.
The target of experiment [4] is Canonical transient receptor potential-1 (TRPC1), endogenous in rat intestinal epithelial cells (rat (endogenous in IEC-6)) (UniProt Q9QX01). As to the kind of experiment: co-IP; whole-cell lysates in RIPA buffer (500 ug) of IEC-6, IEC-Cdx2L1, IEC-TRPC1 (also after siCav1 or C-siRNA), IEC-Cav1 and Null cells; IP with anti-Cav1 or anti-TRPC1 antibody (4 ug), protein A/G-PLUS-Agarose, 4 C; western blot for TRPC1 or Cav1.

“Canonical transient receptor potential-1 (TRPC1), endogenous in rat intestinal epithelial cells (from UniProt Q9QX01 1-759)”: the binding entry in experiment [1] and in experiment [2] was “binds” each time.

B1: Caveolin-1 (Cav1), mouse gastric mucosa (protein, UniProt P49817 1-178)
chain: T1 sequence with N37T, E176K
In the case of B1, the binding result in experiment [3] is given as “binds”.

B2: Caveolin-1 (Cav1), endogenous in rat intestinal epithelial cells (protein, UniProt P41350 1-178)
chain: T1 sequence
Regarding B2, the binding entry in experiment [4] is “binds”.
